Results are given in words; binding and its absence hold for the method and conditions named. A result given as binding can be weak or reduced; the word gives no strength.
How the values were obtained:
[1] = biological target: recombinant human CD40 extracellular domain with C-terminal 6His tag (Novoprotein) (human); experiment: ELISA
[2] = biological target: recombinant human CD40 extracellular domain with C-terminal 6His tag (Novoprotein) (human); experiment: ELISA, plate coated with CD40 extracellular domain-6His
[3] = biological target: recombinant human CD40 extracellular domain with C-terminal 6His tag (Novoprotein) (human); experiment: ELISA, plate coated with CD40 extracellular domain-6His at 1 ug/ml; SVX-3001 supernatant estimated at 27.3 ng/ml

Measured: binding

B1: Humanized anti-human CD-40 antibody SVX-3001 (antibody, human IgG1, kappa, V domains shown)
VH: QVQLQQSGPGLVKPSQSLSLTCAVSGYSITTNYYWNWIRQAPGKGLEWVGYIRYDGTTYYAPSLKGRFSITRDTSKNQFFLQLTSVTPEDTATYYCARLDYWGQGTLVTVSS
VL: DIVMTQSPLSLSVSLGDRASISCRSSQSLENSNGNTFLNWFQQKPGQSPQLLIYRVSNRFSGVPDRFSGSGSGTDFTLKISRVEAEDEGVYFCLQVTHVPYTFGGGTKLEIKR
binds: [1] | [2] | [3]

From US20230227567A1
